PubChem BioAssay AID504784, Drosophila RNAi Screening Center – 2011
The screen tested about 17,000 reagents; below is an unselected part of those with a known target gene and a result. 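Each column is one replicate's B-score; the combined score over replicates was not deposited, so single values may mislead.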 Names joined by + are all predicted targets of the reagent.

Purpose: 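Fly genes whose silencing alters how much lipid cells keep in droplets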 (primary screen)
Cell system: Drosophila Kc167 embryonic cells
Knock-down reagent: long dsRNA against Drosophila genes, about 250 ng dsRNA per well
Timing: 4 days
Treatment: cells fed 400 µM oleic acid bound to BSA
Read-out: 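Microscope images give a droplet-to-nucleus area ratio, taken as log and converted to a screen-wide B-score; higher values mean greater lipid storage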
Direction: droplet/nuclear area B-score: higher = more stored lipid (overstorage)

no.	gene	DRSC id	droplet/nuclear area B-score, replicate 1	droplet/nuclear area B-score, replicate 2	droplet/nuclear area B-score, replicate 3
1	CG33270	DRSC10584	-2.36	-0.0023	
2	BuGZ	DRSC02642	-2.56	-1.1	
3	BuGZ	DRSC02643	-0.204	-0.0156	
4	wts	DRSC17096	-0.211	0.374	
5	wts	DRSC22975	2.83	-0.8	
6	CG10338	DRSC02039	0.622	0.585	
7	CG3829	DRSC04423	0.0293	0.286	
8	CG4572	DRSC15603	1.22	-0.327	
9	IntS12	DRSC15818	0.686	-0.125	
10	CG17068	DRSC20545	-0.334	1.36	
11	Vps13D	DRSC09818	1.36	1.39	
12	Vps13D	DRSC09819	-0.128	1.94	
13	CG14968	DRSC08427	1.21	0.398	
14	CG14989	DRSC08448	0.547	0.181	
15	CG13126	DRSC02222	0.619	-0.836	
16	CG8272	DRSC07134	0.298	1.2	
17	LS2	DRSC04340	1.9	0.433	
18	CG18596	DRSC15355	-1.25	-3.54	
19	Mob2	DRSC09117	0.974	1.97	
20	Mob2	DRSC09119	0.28	0.633	
21	Mob2	DRSC09856	-0.138	0.134	
22	Mob2	DRSC23274	-1.07	0.488	
23	Cpr78Cc	DRSC11846	1.31	0.00137	
24	CG7156	DRSC16207	0.622	-0.897	
25	MtnC	DRSC22879	0.172	0.0327	
26	CG15201	DRSC19648	0.226	0.146	-1.98
27	PPO1	DRSC05929	-0.461	-0.325	
28	mahe	DRSC17755	0.427	-0.862	-0.958
29	CG30031 + deltaTry + gammaTry	DRSC07622	-1.26	0.172	
30	tyn	DRSC20652	-1.16	-1.68	
31	CG31269	DRSC15744	1.24	0.397	
32	sha	DRSC06331	0.0386	-1.94	
33	RalGPS	DRSC06941	-2.03		
34	Skp2 + CG1103	DRSC12160	0.952	1.03	-3.57
35	Skp2 + CG1103	DRSC22356	-0.0764	-2.93	
36	nw	DRSC06749	-2.83		
37	nw	DRSC06896	2.12	-1.58	
38	Alp13	DRSC15781	-0.79	-0.849	
39	Adk1	DRSC15514	1.22	-0.73	

A run of entries from the list above, for reference:
no.	gene	DRSC id	droplet/nuclear area B-score, replicate 1	droplet/nuclear area B-score, replicate 2	droplet/nuclear area B-score, replicate 3
11	Vps13D	DRSC09818	1.36	1.39	
12	Vps13D	DRSC09819	-0.128	1.94	
13	CG14968	DRSC08427	1.21	0.398	
14	CG14989	DRSC08448	0.547	0.181	
15	CG13126	DRSC02222	0.619	-0.836	
16	CG8272	DRSC07134	0.298	1.2	

More reagents follow.
no.	gene	DRSC id	droplet/nuclear area B-score, replicate 1	droplet/nuclear area B-score, replicate 2	droplet/nuclear area B-score, replicate 3
40	CG13460	DRSC10007	0.0327	1.03	
41	CG3345	DRSC00596	-0.459	-1.11	
42	nis	DRSC00290	-0.384	-1.34	
43	yip2	DRSC03640	0.174	1.11	
44	CG15729 (retired record)	DRSC19695	-0.588	4.28	0.000824
45	CG2772	DRSC00530	0.0538	-3.16	
46	Polr2C	DRSC03415	-1.27	-0.162	
47	CG7215 + Prx5	DRSC16214	-0.248	0.817	
48	CG7215 + Prx5	DRSC16215	-0.108	-0.126	
49	Ugt37E1	DRSC02248	0.342	0.0353	
50	Nepl20	DRSC14878	-1.93	1.31	
51	scramb2	DRSC08543	-0.104	0.0702	
52	alphaCOP	DRSC08706	4.8	9.06	
53	Pez	DRSC03397	-2.05	-0.762	
54	Tep5Psi	DRSC02183	1.71	-0.794	
55	Tep5Psi	DRSC02184	-0.392	-0.773	
56	Acp26Ab	DRSC01856	0.181	-1.8	
57	hyd	DRSC16971	-0.816	1.46	
58	PGRP-SC1a	DRSC06482	-0.132	0.181	
59	Sf3b1	DRSC00535	0.0195	-2.69	
60	CG17999	DRSC04300	1.75	-0.695	
61	CG17005	DRSC02556	0.159	-0.0552	
62	CR14117	DRSC10121	-0.425	-0.0213	
63	CG15286	DRSC01907	-0.159	0.561	
64	CG10343	DRSC02041	-2.37	-0.0294	
65	Sac1	DRSC08622	-0.985	0.1	
66	CG5087	DRSC10479	0.215	0.767	
67	CG33770	DRSC11717	0.0743	-0.652	
68	CG3918	DRSC18331	-2.26	-2.95	0.324
69	CG3918	DRSC23159	0.244	0.15	
70	CG14852	DRSC14976	-1.24	-1.41	
71	side-IV + CG17025 (retired record)	DRSC15168	-1.42	-1.78	
72	pic	DRSC16639	-0.847	0.494	
73	Rca1	DRSC03407	-0.462	-0.706	
74	CG12824	DRSC06173	1.39	-0.94	
75	bw	DRSC04005	0.184	-1.5	
76	bw	DRSC04677	0.777	2.51	
77	Ppox	DRSC17033	-0.132	-0.0395	
78	CG14118	DRSC10122	0.537	0.637	
79	Cp110	DRSC20630	-0.563	-0.888	
80	Cp110	DRSC21716	1.17	0.854	
81	CAH13	DRSC06128	11.2	-1.38	
82	Nup358	DRSC14410	5.22	2.22	
83	CG9396	DRSC16487	-0.299	0.406	
84	Nox	DRSC06596	1.41	3.85	
85	Nox	DRSC06857	-0.537	1.02	
86	Gadd45	DRSC06033	0.00267	0.0504	
87	CG9394	DRSC04550	-2.09	0.0724	
88	CG14207	DRSC19562	-1.08	0.556	
89	CG14207	DRSC19563	0.0141	0.000231	
90	Ilp4	DRSC10701	-0.0868	-0.468	
91	CG17159 + CG17162	DRSC20899	-0.306	1	
92	CG17159 + CG17162	DRSC20900	-0.485	-1.77	
93	CG2875	DRSC18231	0.392		
94	VepD	DRSC22318	-0.938	0.252	
95	CG2747	DRSC15450	1.53	-0.281	
96	Ufsp1	DRSC04958	0.822	1.39	
97	E(z)	DRSC11147	1.72	0.00575	
98	CG42816 + CG42815	DRSC11230	-0.0653	0.498	
99	Trpm	DRSC06629	0.553	0.341	
100	Trpm	DRSC21566	0.0474	0.565	
101	CG3306	DRSC10357	0.912	-0.474	
102	Fign	DRSC00592	0.0425	0.857	
103	Galphaq	DRSC07432	-0.282	-0.432	
104	CG12998	DRSC19518	-0.373	-1.71	
105	dop	DRSC10655	1.73	0.735	0.0281
